Measured values taken from PubChem BioAssay AID590 (National Center for Advancing Translational Sciences (NCATS), 2007).
Among all 59,000 compounds or so, about 6,500 (11%) were called active. Inconclusive means that the source gave no clear call. Such entries were picked first, then a sample of the others. No stated cut-off is given here; in the data, active means max dye-equivalent concentration above about 10 nM; inconclusive means mostly about 1.1 nM to 9.6 nM; inactive means weaker than that.

Assay: qHTS Assay for Spectroscopic Profiling in A350 Spectral Region
Details: Compound autofluorescence, 340/450 nm, Alexa 350 dye-equivalents; stronger effect = higher value

Compound	max dye-equivalent concentration
Nc1nnc(SCCOc2ccccc2)s1	inconclusive: 2.9 nM
C=CCNc1nc2c(c(=O)n(C)c(=O)n2C)n1CCCCCC	inactive
CCc1ccc2nc(NC3=NCN(CCCN4CCOCC4)CN3)nc(C)c2c1	inconclusive: 4.5 nM
Cc1ccc2nc3c(cc(C(=O)NCc4ccccc4)c(=N)n3CCCn3ccnc3)c(=O)n2c1	active: 1300 nM
Cc1nnc(NC(=O)C(C)Oc2ccc3c(C)cc(=O)oc3c2)s1 (stereo not given)	inactive
COc1ccc(-n2c(=O)[nH]cc(C(=O)N3CCCc4ccccc43)c2=O)cc1	inconclusive: 2.8 nM
COc1ccc(NC2CC(=O)N(C)C2=O)cc1 (stereo not given)	inconclusive: 6.7 nM
NC(=O)c1c(N)sc2c1CCCCC2	inconclusive: 2.2 nM
CCOc1cccc(-c2nnc3sc(-c4cc(OC)c(OC)cc4OC)nn23)c1	active: 51 nM
O=C(Nc1nc2ccc(S(=O)(=O)N3CCCC3)cc2s1)c1cccs1	inconclusive: 3.3 nM
CC(C)(C)C(=O)Cn1c(=O)n(CC2CCCO2)c(=O)c2ccccc21 (stereo not given)	inactive
CCn1c(N)c(C(=O)NCc2ccc3c(c2)OCO3)sc1=S	inconclusive: 1.7 nM
C1CNCCNCCNCCN1	inconclusive: 3.5 nM
Cc1ccccc1OCc1nnc(SCC(=O)NCc2ccccc2)n1C	inconclusive: 6.8 nM
C=CCNC(=O)c1ccccc1Cl	inactive
CC(C)(C)c1cc(Cc2ccccc2)[nH]n1	inconclusive: 2 nM
CN(C(=O)c1ccncc1)c1ccccc1	active: 200 nM
COc1ccc(C2C(C(=O)c3cc4cccc(OC)c4o3)=C(O)C(=O)N2CCCN(C)C)cc1OC (stereo not given)	inconclusive: 1.7 nM
Cn1c(=O)n(CCc2ccccc2)c(=O)c2c1nc1n2CCCN1c1ccc(F)cc1	inconclusive: 2.8 nM
COc1ccc2nc(CC(C)(C)CC(=O)O)c[n+]([O-])c2c1	active: 2300 nM

Looked up above.
`CC(C)(C)C(=O)Cn1c(=O)n(CC2CCCO2)c(=O)c2ccccc21` (stereo not given) | max dye-equivalent concentration: inactive
`CCn1c(N)c(C(=O)NCc2ccc3c(c2)OCO3)sc1=S` | max dye-equivalent concentration: inconclusive: 1.7 nM

(cont.)

Compound	max dye-equivalent concentration
N=c1c2c3c(sc2ncn1CCN1CCOCC1)CCCC3	inactive
CC(C)(C)c1cc(Br)c(O)c(CN(Cc2cc(C(C)(C)C)cc(Br)c2O)C2CCCCC2)c1	inactive
CN1C(=O)C2(c3ccccc31)C1CCCC=C1C(C#N)=C(N)C2(C#N)C#N (stereo not given)	inconclusive: 1.7 nM
Cn1c(=O)[nH]c2cc(Cl)cnc21	inconclusive: 1.5 nM
COc1ccc(C(=O)n2c(-c3ccco3)nc3ccccc32)cc1	inconclusive: 1.1 nM
CCC(Sc1ccc(C(=O)O)cc1)C(=O)O (stereo not given)	inconclusive: 1.1 nM
COc1ccc(C2=NOC(Cn3c(Cc4ccc(Cl)cc4)nc4c3c(=O)n(C)c(=O)n4C)C2)cc1 (stereo not given)	active: 33 nM
OC(COc1ccccc1)Cn1cc(Br)cn1 (stereo not given)	inconclusive: 3.6 nM
COCCCn1c2nc3ccccc3nc2c2c(=O)n(CC3CCCO3)cnc21 (stereo not given)	active: 1200 nM
COc1ccccc1CNc1ccnc(-c2ccc(N(C)C)cc2)n1	inconclusive: 2.1 nM
CCOc1ccc(C2C(C(=O)c3ccco3)=C(O)C(=O)N2Cc2cccnc2)cc1OC (stereo not given)	inconclusive: 1.1 nM
CC(C)COC(=O)c1ccc(NC(=O)C2C3C=CC(C3)C2C(=O)O)cc1 (stereo not given)	inconclusive: 1.8 nM
Cc1cccc(S(=O)(=O)C(C#N)c2nc3ccccc3nc2N2CC(C)OC(C)C2)c1 (stereo not given)	inconclusive: 9.9 nM
CCC(Sc1ccc2nnc(-c3ccc(F)cc3)n2n1)C(=O)OC (stereo not given)	inconclusive: 7.4 nM
COc1ccc(NC(=O)c2[nH]c(C)c(C(C)=O)c2C)cc1Cl	inconclusive: 1.3 nM
CCCN(CCC)C(=O)CSc1nc2n[nH]c(C)c2c(=N)n1-c1ccc(OCC)cc1	inconclusive: 2.8 nM
COc1cccc(Cn2c(=O)cnc3cnc(Oc4ccccc4)nc32)c1	inactive
O=S(=O)(Cc1ccccc1)N1CCCC(c2nc(-c3ccc(F)cc3)no2)C1 (stereo not given)	inconclusive: 1.8 nM
CCOc1ccc(CCNC(=O)CN2CCN(Cc3ccccc3C)C2=O)cc1OCC	inactive
Cc1cccc(OCC(=O)Nc2ccc3c(c2)nc(CCN2CCN(C)CC2)n3C)c1	inactive

Compound	max dye-equivalent concentration
FC(F)(F)c1ccc(N2CCOCC2)c(NC2=NCCCCC2)c1	active: 13 nM
COc1ccccc1N1CCN(C(=O)CN(Cc2ccccc2)S(C)(=O)=O)CC1	inconclusive: 1.7 nM
COC(=O)c1sccc1NC(=O)c1ccc(Cl)s1	inconclusive: 3.2 nM
CCOC(=O)c1cnc2ccc(Cl)cc2c1N1CCN(C)CC1	inconclusive: 1.1 nM
Cc1cccc(N(C)S(=O)(=O)c2ccc3[nH]cc(C(=O)N4CCOCC4)c(=O)c3c2)c1	active: 32 nM
CC(C)c1ccc(NC(=O)C2CC(=O)N=C(N)S2)cc1 (stereo not given)	inactive
N#Cc1nc(-c2ccco2)oc1N1CCc2ccccc2C1	inconclusive: 5.9 nM
Cc1cc(=O)n2[nH]c(COc3ccccc3)nc2n1	inactive
CCOC(=O)c1c(NC(=O)CSc2nnc(-c3ccc(OC)cc3)o2)sc2c1CCC2	inconclusive: 5.4 nM
N[C@@H](CNO)C(=O)O	inactive
CCOC(=O)CSc1nc2ccccc2c(=O)n1CC1COc2ccccc2O1 (stereo not given)	inconclusive: 1.1 nM
CCCC(=O)Nc1ccc(C(=O)NCCCn2ccnc2)cc1	inactive
O=C(CC1Nc2ccccc2NC1=O)NCCCN1CCCCCC1 (stereo not given)	active: 34 nM
COC(=O)C(O)(CC(=O)Nc1ccc(OC(F)(F)F)cc1)C(F)(F)F (stereo not given)	inconclusive: 2.2 nM
Cc1ccccc1OCCN1C(=O)NC2(CCc3ccccc32)C1=O (stereo not given)	active: 67 nM
COc1ccccc1NC(=O)C1=C(C)Nc2nnnn2C1c1cccc(Br)c1 (stereo not given)	inactive
O=C(O)c1ccccc1Nc1cccc(OCc2ccc3ccccc3n2)c1	inactive
Cc1ccc(C)c(NC2=CC(=O)CC(C)(C)C2)c1C#N	inconclusive: 5.9 nM
Cc1cc(C)nc(Nc2ccc(N3CCOCC3)cc2)n1	inactive
COC(=O)C1=C(C)OC(N)=C(C#N)C1c1ccc(OC)c(OC)c1OC (stereo not given)	inconclusive: 1.1 nM
